Assay [1] concerns the target T1, C-terminal half of TPX2 (amino acids 319-716) (Xenopus laevis) (UniProt Q6NUF4).
T1 sequence: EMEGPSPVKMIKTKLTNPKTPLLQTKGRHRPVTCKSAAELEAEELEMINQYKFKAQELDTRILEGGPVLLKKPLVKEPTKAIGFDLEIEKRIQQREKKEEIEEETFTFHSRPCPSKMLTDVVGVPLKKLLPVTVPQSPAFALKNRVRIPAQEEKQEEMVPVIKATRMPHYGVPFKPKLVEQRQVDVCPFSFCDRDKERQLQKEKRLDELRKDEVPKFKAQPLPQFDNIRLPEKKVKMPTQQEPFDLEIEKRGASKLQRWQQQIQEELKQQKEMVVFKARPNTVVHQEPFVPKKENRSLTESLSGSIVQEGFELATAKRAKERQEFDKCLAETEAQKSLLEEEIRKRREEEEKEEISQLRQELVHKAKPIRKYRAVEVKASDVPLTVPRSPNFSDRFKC
Put plainly: BLI. For orientation: Biolayer interferometry detects binding as a change in optical thickness at a sensor tip.

In assay [2] the target is T2, TPX2 amino acids 1-99 (Xenopus laevis) (UniProt Q6NUF4).
T2 sequence: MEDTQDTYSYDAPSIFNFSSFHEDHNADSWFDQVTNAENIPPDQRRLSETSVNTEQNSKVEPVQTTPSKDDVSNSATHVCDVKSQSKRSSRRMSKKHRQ
Put plainly: BLI.

For one substance, binding results are on record in publication doi:10.1101/2020.09.01.276469.

Results are given in words; binding and its absence hold for the method and conditions named. Binding can be weak; no strength is given.

For “importin-αΔIBB (importin-α without the importin-β binding domain) (Xenopus laevis) (domain or fragment)”, the binding result in assay [1] and in assay [2] was “binds weakly” throughout.
